Among the data in paper PMC5923425, “Structural analysis of human ARS2 as a platform for co-transcriptional RNA sorting” (Nature Communications, 2018) are binding values, retold here.

The chains behind the UniProt entries cited, without tags or fusion partners. Where a name states a change or a piece, a line headed by the entry shows the natural chain unless it says otherwise. Residues count along the entry.
UniProt Q9UKL3, residues 903-943: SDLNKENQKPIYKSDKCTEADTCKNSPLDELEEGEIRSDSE
UniProt Q09161: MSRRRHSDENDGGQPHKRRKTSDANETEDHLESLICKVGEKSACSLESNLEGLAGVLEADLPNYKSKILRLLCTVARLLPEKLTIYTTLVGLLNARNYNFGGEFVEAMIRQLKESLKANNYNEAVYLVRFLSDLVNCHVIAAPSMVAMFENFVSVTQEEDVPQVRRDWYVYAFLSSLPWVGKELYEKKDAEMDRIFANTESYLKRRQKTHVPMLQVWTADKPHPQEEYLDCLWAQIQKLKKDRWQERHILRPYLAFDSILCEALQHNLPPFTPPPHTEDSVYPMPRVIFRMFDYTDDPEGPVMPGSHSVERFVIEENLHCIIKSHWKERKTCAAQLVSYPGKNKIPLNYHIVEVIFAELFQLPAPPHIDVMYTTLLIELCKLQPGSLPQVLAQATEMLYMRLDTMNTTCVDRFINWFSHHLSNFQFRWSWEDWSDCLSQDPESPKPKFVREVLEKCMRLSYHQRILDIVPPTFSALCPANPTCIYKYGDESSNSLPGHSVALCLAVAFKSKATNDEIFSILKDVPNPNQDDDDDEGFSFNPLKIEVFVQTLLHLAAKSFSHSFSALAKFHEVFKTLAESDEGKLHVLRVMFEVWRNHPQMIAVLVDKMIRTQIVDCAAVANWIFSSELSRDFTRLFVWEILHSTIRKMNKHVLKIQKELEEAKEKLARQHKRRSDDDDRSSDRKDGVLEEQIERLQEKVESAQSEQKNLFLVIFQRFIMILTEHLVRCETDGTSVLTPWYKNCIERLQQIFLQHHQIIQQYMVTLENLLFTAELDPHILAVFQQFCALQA

Sequences and labels used below:
B1: full-length NCBP3 (residues 1–620) (natural protein, human, UniProt Q53F19-1 1-620, looked up)
chain: MAAVRGLRVSVKAEAPAGPALGLPSPEAESGVDRGEPEPMEVEEGELEIVPVRRSLKELIPDTSRRYENKAGSFITGIDVTSKEAIEKKEQRAKRFHFRSEVNLAQRNVALDRDMMKKAIPKVRLETIYICGVDEMSTQDVFSYFKEYPPAHIEWLDDTSCNVVWLDEMTATRALINMSSLPAQDKIRSRDASEDKSAEKRKKDKQEDSSDDDEAEEGEVEDENSSDVELDTLSQVEEESLLRNDLRPANKLAKGNRLFMRFATKDDKKELGAARRSQYYMKYGNPNYGGMKGILSNSWKRRYHSRRIQRDVIKKRALIGDDVGLTSYKHRHSGLVNVPEEPIEEEEEEEEEEEEEEEEDQDMDADDRVVVEYHEELPALKQPRERSASRRSSASSSDSDEMDYDLELKMISTPSPKKSMKMTMYADEVESQLKNIRNSMRADSVSSSNIKNRIGNKLPPEKFADVRHLLDEKRQHSRPRPPVSSTKSDIRQRLGKRPHSPEKAFSSNPVVRREPSSDVHSRLGVPRQDSKGLYADTREKKSGNLWTRLGSAPKTKEKNTKKVDHRAPGAEEDDSELQRAWGALIKEKEQSRQKKSRLDNLPSLQIEVSRESSSGSEAES
notes: human NCBP3, full length, residues 1-620, cloned into pFASTBac HTb; also called NCBP3^1–620; source: High Five insect cells, purified; not shown: His6, N-terminal, cleaved

The target of assay [1] is B1. Put plainly: pull-down; purified recombinant NCBP3 constructs immobilised on m7GTP sepharose, incubated with CBP80 and/or wild type or mutant ARS2; eluted fractions on Coomassie-stained SDS-PAGE; both purified.
In assay [2] the target is T1, NCBP3^1–282 (human) (UniProt Q53F19).
T1 sequence: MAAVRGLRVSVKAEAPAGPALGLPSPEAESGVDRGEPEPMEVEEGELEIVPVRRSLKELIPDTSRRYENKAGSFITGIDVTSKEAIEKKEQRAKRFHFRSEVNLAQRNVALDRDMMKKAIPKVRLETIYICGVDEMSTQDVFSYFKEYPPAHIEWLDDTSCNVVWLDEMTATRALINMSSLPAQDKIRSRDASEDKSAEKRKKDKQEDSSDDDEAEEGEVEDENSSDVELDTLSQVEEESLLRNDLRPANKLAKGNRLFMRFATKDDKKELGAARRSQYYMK
In words: ITC; MicroCal ITC200, 25 °C, ARS2 constructs with NCBP3 1–282; buffer containing 250 mM NaCl; injections of 2.5 µL; both purified.

Assay [3] deals with T2, FARB (FLASH–ARS2-binding region) peptide of FLASH, residues 931–943.
T2 sequence (peptide): DELEEGEIRSDSE
In words: ITC; MicroCal ITC200, 25 °C, ARS2 constructs with FLASH peptides; high salt (HS): buffer containing 250 mM NaCl; single-site fit; which partner was injected is not told; both purified. (ITC needs no label: the signal is the heat of the interaction.)

The target of assay [4] is T1, NCBP3^1–282 (human). Put plainly: pull-down; purified recombinant NCBP3 constructs immobilised on m7GTP sepharose, incubated with CBP80 and/or wild type or mutant ARS2; eluted fractions on Coomassie-stained SDS-PAGE; both purified.
Another assay addresses GST–FLASH^903–943 (UniProt Q9UKL3). In words: pull-down; GST–FLASH 903–943 (or GST as control) immobilised on glutathione sepharose, incubated with purified ARS2 constructs 30 min at 10 °C; flow-through, wash and elution on Coomassie-stained SDS-PAGE; both purified.
In assay [5] the target is B1. In words: SEC; purified proteins mixed, Superdex 200, 120 mM NaCl, 1 mM TCEP, 20 mM HEPES pH 7.8; in the absence of m7GTP; fractions on SDS-PAGE; both purified. In general terms: Size exclusion chromatography separates by hydrodynamic size, large species first.
The target in assay [6] is nuclear cap-binding complex (CBC): CBP20 with CBP80ΔNLS (human). The assay is described as above.
For assay [7] the target is unchanged. In words: SEC; CBC, NCBP3 and ARS2 147–871 mixed in the presence of m7GTP, Superdex 200, 120 mM NaCl, 1 mM TCEP, 20 mM HEPES pH 7.8; fractions on SDS-PAGE; both purified.

These are yes or no findings as the source states them, for the method shown. For some assays here: Binding can be weak; no strength is given.

“ARS2^171–270+408–763ΔloopAΔloopB (from UniProt Q9BXP5-4) (domain or fragment)”: the binding entry in assay [1] is reported as “binds”.

Regarding “ARS2^(147–871 Δ694–742GSG) (from UniProt Q9BXP5-4) (domain or fragment)”, the binding result (in the assay with NCBP3^1–282 (human) [2]; in assay [3]; with NCBP3^1–282 (human) [4]; with GST–FLASH^903–943) was “no binding” each time.

Turning to CBP80ΔNLS (from UniProt Q09161), the binding entry in assay [5] was “binds”; in assay [1], “binds”; with NCBP3^1–282 (human) [4] it was “no binding”.

With B1, the binding entry in assay [6] and in assay [7] was “binds” in each case.

B2: ARS2^147–871 (domain or fragment, UniProt Q9BXP5-4 147-871)
chain: PVMKTFKEFLLSLDDSVDETEAVKRYNDYKLDFRRQQMQDFFLAHKDEEWFRSKYHPDEVGKRRQEARGALQNRLRVFLSLMETGWFDNLLLDIDKADAIVKMLDAAVIKMEGGTENDLRILEQEEEEEQAGKPGEPSKKEEGRAGAGLGDGERKTNDKDEKKEDGKQAENDSSNDDKTKKSEGDGDKEEKKEDSEKEAKKSSKKRNRKHSGDDSFDEGSVSESESESESGQAEEEKEEAEALKEKEKPKEEEWEKPKDAAGLECKPRPLHKTCSLFMRNIAPNISRAEIISLCKRYPGFMRVALSEPQPERRFFRRGWVTFDRSVNIKEICWNLQNIRLRECELSPGVNRDLTRRVRNINGITQHKQIVRNDIKLAAKLIHTLDDRTQLWASEPGTPPLPTSLPSQNPILKNITDYLIEEVSAEEEELLGSSGGAPPEEPPKEGNPAEINVERDEKLIKVLDKLLLYLRIVHSLDYYNTCEYPNEDEMPNRCGIIHVRGPMPPNRISHGEVLEWQKTFEEKLTPLLSVRESLSEEEAQKMGRKDPEQEVEKFVTSNTQELGKDKWLCPLSGKKFKGPEFVRKHIFNKHAEKIEEVKKEVAFFNNFLTDAKRPALPEIKPAQPPGPAQSLTPGLPYPHQTPQGLMPYGQPRPPILGYGAGAVRPAVPTGGPPYPHAPYGAGRGNYDAFRGQGGYPGKPRNRMVRGDPRAIVEYRDLDAPDDVDFF
Consider B2, for which the binding entry in assay [7] is listed as “binds”.
